Like-named read-outs stand apart in the source and are kept apart here. Results are given in words; binding and its absence hold for the method and conditions named. Binding seen in cells or lysates may run through a third protein. Some results given as binding are weak or reduced against the parent protein; the word gives no strength. Where a sequence is shown, tags or fusion partners need not be part of it.

Common to all, as to test: co-IP
Test [1] addresses T1, DmSTING (STING homolog of Drosophila melanogaster) (Drosophila melanogaster).
T1 sequence: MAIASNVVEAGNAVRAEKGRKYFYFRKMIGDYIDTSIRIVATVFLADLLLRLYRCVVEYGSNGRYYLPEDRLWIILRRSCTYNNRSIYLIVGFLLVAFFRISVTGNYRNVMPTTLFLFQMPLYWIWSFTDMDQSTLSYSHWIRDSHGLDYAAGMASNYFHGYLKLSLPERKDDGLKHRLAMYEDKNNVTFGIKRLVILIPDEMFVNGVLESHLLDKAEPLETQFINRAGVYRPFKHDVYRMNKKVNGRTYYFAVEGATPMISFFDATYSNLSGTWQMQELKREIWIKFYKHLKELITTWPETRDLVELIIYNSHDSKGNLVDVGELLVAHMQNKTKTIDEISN

For test [2], the target named is T2, HA-DrSTING (STING of Danio rerio), expressed in HEK 293T (Danio rerio).
T2 sequence: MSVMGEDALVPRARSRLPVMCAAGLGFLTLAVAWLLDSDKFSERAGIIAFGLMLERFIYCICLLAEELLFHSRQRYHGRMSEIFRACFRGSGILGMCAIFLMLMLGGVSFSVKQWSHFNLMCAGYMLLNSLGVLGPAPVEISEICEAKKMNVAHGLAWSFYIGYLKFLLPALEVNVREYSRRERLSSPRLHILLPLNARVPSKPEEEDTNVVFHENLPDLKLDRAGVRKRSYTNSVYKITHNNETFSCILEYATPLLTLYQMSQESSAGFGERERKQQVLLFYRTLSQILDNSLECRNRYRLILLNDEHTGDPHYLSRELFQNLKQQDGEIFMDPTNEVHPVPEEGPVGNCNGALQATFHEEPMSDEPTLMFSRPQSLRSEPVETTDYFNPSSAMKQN

Test [3] concerns the target T3, HA-MmSTING (STING of Mus musculus), expressed in HEK 293T (Mus musculus).
T3 sequence: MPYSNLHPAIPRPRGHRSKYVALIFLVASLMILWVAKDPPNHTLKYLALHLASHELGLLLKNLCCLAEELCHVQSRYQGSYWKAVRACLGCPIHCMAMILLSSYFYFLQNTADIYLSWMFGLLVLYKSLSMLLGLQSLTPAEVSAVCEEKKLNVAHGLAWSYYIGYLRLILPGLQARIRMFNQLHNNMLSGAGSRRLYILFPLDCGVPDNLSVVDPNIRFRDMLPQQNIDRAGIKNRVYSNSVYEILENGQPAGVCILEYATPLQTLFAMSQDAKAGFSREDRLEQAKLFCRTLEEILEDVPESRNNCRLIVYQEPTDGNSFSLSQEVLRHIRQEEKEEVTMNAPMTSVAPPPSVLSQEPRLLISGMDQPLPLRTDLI

Test [4] deals with T4, HA-tagged CgSTING (STING homolog of the mollusk Crassostrea gigas) (Crassostrea gigas).
T4 sequence: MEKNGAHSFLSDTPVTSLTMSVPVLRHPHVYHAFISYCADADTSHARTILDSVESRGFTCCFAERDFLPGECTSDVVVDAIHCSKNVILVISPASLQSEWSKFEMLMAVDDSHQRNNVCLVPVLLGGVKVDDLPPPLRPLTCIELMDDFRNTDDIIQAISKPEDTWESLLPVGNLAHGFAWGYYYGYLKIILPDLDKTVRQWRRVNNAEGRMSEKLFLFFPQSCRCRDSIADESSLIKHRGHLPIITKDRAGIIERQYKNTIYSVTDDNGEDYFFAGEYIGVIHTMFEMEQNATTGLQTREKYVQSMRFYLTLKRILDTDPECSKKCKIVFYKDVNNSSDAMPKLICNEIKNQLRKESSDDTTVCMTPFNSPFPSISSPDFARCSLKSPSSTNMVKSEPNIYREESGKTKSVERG

The target of test [5] is HA-tagged FsSTING (STING homolog of the bacterium Flavobacteriaceae sp.) (Flavobacteriaceae sp.).
Test [6] deals with T2, HA-DrSTING (STING of Danio rerio), expressed in HEK 293T (Danio rerio). The source holds these as a separate data set.
Test [7] deals with T5, HA-MbSTING (STING of Monosiga brevicollis), expressed in HEK 293T (Monosiga brevicollis).
T5 sequence: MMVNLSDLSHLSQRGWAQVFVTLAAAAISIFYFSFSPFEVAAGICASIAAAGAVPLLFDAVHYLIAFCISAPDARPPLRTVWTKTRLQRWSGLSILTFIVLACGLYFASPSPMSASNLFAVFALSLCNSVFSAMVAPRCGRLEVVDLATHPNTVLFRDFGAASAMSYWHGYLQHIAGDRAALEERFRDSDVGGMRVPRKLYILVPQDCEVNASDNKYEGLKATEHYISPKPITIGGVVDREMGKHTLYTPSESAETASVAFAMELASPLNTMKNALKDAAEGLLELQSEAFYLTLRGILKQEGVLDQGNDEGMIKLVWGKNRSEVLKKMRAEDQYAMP

The target of test [8] is T3, HA-MmSTING (STING of Mus musculus), expressed in HEK 293T (Mus musculus). This is another data set of the same source.
For test [9], the target named is HA-NvSTING (STING of Nematostella vectensis), expressed in HEK 293T (Nematostella vectensis).
Test [10] addresses T6, HA-XtSTING (STING of Xenopus tropicalis), expressed in HEK 293T (Xenopus tropicalis).
T6 sequence: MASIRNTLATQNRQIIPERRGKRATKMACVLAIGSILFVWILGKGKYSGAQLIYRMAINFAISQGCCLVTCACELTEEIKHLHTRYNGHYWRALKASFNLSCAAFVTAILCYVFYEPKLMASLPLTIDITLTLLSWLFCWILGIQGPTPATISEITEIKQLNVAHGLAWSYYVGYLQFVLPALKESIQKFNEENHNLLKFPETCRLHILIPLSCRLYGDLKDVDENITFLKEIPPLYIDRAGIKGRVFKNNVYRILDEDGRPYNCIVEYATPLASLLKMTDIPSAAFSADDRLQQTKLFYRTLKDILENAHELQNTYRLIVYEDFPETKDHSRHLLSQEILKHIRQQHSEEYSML

B1: MmFADS2-FLAG (fatty acid desaturase 2 of Mus musculus) (protein)
chain: MGKGGNQGEGSTERQAPMPTFRWEEIQKHNLRTDRWLVIDRKVYNVTKWSQRHPGGHRVIGHYSGEDATDAFRAFHLDLDFVGKFLKPLLIGELAPEEPSLDRGKSSQITEDFRALKKTAEDMNLFKTNHLFFFLLLSHIIVMESLAWFILSYFGTGWIPTLVTAFVLATSQAQAGWLQHDYGHLSVYKKSIWNHVVHKFVIGHLKGASANWWNHRHFQHHAKPNIFHKDPDIKSLHVFVLGEWQPLEYGKKKLKYLPYNHQHEYFFLIGPPLLIPMYFQYQIIMTMISRRDWVDLAWAISYYMRFFYTYIPFYGILGALVFLNFIRFLESHWFVWVTQMNHLVMEIDLDHYRDWFSSQLAATCNVEQSFFNDWFSGHLNFQIEHHLFPTMPRHNLHKIAPLVKSLCAKHGIEYQEKPLLRALIDIVSSLKKSGELWLDAYLHK
As for B1, the binding entry was “binds” in test [1]; “binds” in test [2]; “binds” in test [3]; “no binding” in [4]; “no binding” in test [5]; “binds” in test [6]. Further, the binding result in [7], in [8], in test [9] and in [10] was “binds” throughout.

Values taken from doi:10.1101/2025.11.17.688879.
